± gives the standard deviation of the averaged measurements. The list shows a part of the results, in another mix than the full data. Most entries show no effect beyond the scatter of the controls.

By UniProt entry, the sequences of proteins in these tests, tags left out. Where a name states a change or a piece, a line headed by the entry shows the natural chain unless it says otherwise.
UniProt Q14683: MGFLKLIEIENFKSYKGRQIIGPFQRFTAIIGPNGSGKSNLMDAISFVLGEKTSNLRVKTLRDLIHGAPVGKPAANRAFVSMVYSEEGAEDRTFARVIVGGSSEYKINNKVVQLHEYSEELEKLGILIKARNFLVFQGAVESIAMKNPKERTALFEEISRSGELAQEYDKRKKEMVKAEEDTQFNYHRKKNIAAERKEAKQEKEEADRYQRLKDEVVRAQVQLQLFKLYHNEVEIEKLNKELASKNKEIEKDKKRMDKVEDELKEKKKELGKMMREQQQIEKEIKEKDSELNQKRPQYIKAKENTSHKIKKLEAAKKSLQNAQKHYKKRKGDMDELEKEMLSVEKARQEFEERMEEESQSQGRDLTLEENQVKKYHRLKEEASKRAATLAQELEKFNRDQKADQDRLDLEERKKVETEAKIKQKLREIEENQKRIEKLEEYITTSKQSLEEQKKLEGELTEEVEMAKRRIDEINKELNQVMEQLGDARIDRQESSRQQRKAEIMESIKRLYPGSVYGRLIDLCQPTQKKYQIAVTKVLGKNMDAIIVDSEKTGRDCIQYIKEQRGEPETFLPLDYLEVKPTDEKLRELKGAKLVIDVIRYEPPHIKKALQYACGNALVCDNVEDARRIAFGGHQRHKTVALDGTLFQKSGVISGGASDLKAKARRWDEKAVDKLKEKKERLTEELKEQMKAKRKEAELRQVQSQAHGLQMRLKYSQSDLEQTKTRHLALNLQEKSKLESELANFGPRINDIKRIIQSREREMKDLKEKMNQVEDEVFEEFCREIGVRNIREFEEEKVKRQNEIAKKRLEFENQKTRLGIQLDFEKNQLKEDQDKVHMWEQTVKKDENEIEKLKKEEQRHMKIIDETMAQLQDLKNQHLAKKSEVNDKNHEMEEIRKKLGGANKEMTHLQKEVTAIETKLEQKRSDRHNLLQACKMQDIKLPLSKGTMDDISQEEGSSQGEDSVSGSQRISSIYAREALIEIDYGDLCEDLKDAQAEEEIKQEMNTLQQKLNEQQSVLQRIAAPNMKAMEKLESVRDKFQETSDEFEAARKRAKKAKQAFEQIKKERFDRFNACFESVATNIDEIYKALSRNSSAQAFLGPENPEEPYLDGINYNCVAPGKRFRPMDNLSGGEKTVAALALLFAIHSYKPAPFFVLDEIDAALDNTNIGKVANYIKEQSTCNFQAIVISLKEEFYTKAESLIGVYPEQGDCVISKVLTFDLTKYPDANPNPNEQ
UniProt Q3YEC7: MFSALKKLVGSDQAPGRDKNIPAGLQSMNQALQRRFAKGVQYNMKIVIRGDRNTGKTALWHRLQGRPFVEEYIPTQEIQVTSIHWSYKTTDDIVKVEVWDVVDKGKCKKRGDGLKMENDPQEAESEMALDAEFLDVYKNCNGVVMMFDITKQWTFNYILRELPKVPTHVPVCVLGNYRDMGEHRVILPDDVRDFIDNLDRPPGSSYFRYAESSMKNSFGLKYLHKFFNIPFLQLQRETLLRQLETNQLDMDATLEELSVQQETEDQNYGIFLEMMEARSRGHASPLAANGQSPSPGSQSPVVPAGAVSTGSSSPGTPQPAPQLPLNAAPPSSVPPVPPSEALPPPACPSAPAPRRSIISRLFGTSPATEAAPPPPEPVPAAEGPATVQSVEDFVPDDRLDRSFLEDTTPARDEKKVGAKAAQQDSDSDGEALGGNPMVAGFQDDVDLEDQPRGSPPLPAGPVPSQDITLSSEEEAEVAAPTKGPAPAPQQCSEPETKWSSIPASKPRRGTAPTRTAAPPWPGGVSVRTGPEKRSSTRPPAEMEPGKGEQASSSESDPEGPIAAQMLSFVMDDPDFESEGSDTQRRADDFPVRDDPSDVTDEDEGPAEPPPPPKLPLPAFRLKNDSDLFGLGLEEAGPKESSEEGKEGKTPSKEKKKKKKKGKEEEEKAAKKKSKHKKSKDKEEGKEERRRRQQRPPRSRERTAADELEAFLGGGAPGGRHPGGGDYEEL
UniProt Q3SXM5: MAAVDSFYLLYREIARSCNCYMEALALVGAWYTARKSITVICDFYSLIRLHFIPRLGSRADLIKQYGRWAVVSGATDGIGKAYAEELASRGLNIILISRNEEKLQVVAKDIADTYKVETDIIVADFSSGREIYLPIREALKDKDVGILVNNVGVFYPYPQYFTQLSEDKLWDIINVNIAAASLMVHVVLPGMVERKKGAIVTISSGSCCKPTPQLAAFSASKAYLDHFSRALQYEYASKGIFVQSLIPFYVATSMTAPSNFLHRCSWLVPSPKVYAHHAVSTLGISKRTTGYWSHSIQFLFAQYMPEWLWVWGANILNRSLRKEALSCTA
UniProt Q15126: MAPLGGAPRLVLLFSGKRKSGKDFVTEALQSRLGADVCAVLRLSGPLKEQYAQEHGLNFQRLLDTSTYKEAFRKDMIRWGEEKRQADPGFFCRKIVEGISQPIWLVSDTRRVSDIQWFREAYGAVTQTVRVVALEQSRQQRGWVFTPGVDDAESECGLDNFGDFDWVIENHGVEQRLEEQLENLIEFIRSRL
UniProt Q15545, whole entry: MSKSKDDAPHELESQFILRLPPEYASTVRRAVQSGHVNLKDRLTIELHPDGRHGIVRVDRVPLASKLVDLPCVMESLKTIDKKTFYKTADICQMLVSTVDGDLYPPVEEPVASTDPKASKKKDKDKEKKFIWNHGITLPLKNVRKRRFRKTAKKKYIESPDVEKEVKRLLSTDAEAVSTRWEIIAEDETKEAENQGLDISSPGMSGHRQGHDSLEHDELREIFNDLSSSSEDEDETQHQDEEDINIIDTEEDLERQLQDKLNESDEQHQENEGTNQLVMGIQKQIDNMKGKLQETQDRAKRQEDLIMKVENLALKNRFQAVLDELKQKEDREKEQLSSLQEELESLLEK
UniProt Q14CX7, whole entry: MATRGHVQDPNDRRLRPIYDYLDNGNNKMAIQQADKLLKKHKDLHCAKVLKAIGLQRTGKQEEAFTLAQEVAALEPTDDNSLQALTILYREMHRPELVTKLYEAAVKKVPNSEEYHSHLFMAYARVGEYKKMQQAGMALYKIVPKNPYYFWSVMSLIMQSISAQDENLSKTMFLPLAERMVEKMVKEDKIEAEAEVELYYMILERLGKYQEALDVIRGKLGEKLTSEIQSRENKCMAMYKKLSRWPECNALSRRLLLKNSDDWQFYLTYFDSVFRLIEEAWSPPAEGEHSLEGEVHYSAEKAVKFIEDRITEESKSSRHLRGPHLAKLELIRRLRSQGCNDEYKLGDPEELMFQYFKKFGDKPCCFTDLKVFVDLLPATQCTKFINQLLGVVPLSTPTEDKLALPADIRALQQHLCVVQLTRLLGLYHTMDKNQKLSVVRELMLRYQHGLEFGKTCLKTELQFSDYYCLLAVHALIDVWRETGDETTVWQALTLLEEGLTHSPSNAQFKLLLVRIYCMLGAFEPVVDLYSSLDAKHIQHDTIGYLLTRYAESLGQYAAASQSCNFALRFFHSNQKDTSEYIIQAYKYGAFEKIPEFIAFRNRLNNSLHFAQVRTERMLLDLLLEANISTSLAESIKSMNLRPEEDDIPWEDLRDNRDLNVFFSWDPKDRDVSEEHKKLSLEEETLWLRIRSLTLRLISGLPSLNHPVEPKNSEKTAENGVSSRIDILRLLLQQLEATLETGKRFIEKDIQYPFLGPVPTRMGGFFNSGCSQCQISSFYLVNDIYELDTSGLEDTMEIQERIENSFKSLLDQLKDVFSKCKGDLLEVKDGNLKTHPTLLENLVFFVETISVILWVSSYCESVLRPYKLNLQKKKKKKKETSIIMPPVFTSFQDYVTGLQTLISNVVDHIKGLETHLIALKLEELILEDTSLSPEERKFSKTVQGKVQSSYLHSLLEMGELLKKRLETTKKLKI
UniProt Q2VPB7: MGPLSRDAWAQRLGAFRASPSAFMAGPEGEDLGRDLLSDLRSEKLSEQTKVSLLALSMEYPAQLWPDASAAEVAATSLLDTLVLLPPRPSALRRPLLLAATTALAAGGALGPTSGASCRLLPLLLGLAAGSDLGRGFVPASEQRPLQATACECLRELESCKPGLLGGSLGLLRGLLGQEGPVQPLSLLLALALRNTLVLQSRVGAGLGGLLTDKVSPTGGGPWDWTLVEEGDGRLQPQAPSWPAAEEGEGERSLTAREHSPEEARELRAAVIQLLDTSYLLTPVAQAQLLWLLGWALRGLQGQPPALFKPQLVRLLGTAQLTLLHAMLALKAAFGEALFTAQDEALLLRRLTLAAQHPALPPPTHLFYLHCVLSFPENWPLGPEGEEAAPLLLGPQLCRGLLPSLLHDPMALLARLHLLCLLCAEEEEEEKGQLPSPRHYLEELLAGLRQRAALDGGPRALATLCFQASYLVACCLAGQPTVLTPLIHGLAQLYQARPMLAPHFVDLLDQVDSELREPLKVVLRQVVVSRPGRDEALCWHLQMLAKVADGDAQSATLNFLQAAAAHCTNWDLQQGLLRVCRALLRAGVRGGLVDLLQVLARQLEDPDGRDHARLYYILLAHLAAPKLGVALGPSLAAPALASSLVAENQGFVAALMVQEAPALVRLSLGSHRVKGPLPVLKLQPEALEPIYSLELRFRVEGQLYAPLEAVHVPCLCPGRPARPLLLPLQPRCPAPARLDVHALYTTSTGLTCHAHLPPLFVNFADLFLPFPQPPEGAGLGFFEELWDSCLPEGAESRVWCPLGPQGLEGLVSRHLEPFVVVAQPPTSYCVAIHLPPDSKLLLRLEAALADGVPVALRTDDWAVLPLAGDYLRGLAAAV
UniProt Q14696: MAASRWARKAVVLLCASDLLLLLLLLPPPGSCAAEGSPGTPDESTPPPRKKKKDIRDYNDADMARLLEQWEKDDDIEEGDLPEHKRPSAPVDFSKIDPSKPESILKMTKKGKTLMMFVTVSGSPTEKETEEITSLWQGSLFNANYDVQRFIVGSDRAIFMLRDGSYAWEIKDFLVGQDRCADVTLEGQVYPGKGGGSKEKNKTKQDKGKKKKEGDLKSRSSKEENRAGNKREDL
UniProt Q16740, whole entry: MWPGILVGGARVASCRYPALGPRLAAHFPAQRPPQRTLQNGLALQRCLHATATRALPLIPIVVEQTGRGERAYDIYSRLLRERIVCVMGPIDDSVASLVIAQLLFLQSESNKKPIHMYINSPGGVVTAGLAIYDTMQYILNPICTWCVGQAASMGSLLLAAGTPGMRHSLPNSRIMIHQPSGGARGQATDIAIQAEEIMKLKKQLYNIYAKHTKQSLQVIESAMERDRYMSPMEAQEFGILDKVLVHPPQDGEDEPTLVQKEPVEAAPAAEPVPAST
UniProt Q3T906: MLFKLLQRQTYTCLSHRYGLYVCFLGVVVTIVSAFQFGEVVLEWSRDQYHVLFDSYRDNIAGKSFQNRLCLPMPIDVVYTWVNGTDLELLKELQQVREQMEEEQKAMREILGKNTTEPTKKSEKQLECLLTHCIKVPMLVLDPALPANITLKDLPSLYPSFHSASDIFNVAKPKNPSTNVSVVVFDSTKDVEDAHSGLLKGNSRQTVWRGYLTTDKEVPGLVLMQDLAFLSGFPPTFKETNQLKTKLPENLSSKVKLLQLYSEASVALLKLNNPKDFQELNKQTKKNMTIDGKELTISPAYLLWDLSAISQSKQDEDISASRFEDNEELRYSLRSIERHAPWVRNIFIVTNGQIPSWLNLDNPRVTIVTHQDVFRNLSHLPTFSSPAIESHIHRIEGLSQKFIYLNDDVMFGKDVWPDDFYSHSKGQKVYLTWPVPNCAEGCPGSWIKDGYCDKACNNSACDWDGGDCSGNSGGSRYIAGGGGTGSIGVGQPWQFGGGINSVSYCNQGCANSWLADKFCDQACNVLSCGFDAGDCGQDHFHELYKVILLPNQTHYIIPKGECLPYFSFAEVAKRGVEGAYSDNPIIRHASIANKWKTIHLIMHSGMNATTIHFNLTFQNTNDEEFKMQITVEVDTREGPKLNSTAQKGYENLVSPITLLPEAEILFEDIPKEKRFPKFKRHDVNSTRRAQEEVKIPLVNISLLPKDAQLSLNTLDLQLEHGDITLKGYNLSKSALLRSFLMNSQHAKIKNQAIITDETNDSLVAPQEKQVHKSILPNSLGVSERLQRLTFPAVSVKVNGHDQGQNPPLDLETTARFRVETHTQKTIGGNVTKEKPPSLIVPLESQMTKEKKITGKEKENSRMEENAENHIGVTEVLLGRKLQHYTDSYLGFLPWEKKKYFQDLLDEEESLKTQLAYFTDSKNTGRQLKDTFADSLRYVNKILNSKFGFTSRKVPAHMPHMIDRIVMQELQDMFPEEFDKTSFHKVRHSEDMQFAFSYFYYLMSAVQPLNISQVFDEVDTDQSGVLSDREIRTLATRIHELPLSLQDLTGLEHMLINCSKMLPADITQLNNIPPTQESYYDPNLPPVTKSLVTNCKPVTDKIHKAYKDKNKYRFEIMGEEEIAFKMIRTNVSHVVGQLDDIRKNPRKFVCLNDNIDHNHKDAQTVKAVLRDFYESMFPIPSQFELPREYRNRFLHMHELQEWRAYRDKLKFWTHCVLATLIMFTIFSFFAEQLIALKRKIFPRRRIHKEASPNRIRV
UniProt Q16718, whole entry: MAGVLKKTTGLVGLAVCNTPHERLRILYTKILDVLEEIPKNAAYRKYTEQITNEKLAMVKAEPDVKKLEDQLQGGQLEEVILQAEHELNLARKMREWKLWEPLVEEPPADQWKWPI

Compound in the experiment: Nc1ncnc2c1ncn2[C@@H]1O[C@H](COP(=O)(O)OP(=O)(O)OP(=O)(O)O)[C@@H](O)[C@H]1O [adenosine triphosphate]
The experiment can be described thus: NP40-soluble protein abundance relative to vehicle (solubility fold change) (ratio); higher = more soluble protein in presence of ATP. In outline: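 Values are fold changes against the detergent-processed vehicle, based on vsn-normalised intensities. Jurkat crude lysate was treated at eight concentrations from 0.1 to 10 mM (10 min at room temperature, then 3 min at 37 °C), solubilised with 0.8% NP40 and benzonase, ultracentrifuged and analysed by TMT-labelled LC-MS/MS over three independent experiments.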

Consider UniProt Q15084 and related entries, for which the NP40-soluble protein abundance is, setting by setting: (concentration: 0.1mM) 0.97 ± 0.014; (concentration: 0.5mM) 0.952 ± 0.053.
The matching figures for UniProt Q14934 and related entries: 0.955 ± 0.15 and 0.963 ± 0.12.
For TRIP13 (UniProt Q15645), the NP40-soluble protein abundance by setting is: (concentration: 0.1mM) 1.05 ± 0.06; (concentration: 0.5mM) 1.05 ± 0.013.
The matching figures for UniProt Q14554 and related entries: 1.06 ± 0.026 and 1.05 ± 0.042.
Take UniProt Q14814-4: the NP40-soluble protein abundance reads like this: (concentration: 0.1mM) 0.972 ± 0.028; (concentration: 0.5mM) 0.94 ± 0.029.
With SMC1A (UniProt Q14683), the NP40-soluble protein abundance runs as follows: (concentration: 0.1mM) 1.01 ± 0.023; (concentration: 0.5mM) 1.03 ± 0.055.
For the target ITPR2 (UniProt Q14571), the NP40-soluble protein abundance amounted to 1.04 ± 0.038 (concentration: 0.1mM) and 1.08 ± 0.022 (concentration: 0.5mM).
Consider WDR43 (UniProt Q15061), for which the NP40-soluble protein abundance by setting is: (concentration: 0.1mM) 1.15 ± 0.29; (concentration: 0.5mM) 1.016 ± 0.01.
The matching figures for UniProt Q15723 and related entries: 0.942 ± 0.088 and 0.943 ± 0.08.
On to UniProt Q15046 and related entries, for which the NP40-soluble protein abundance came out at 1.01 ± 0.044 (concentration: 0.1mM) and 1 ± 0.037 (concentration: 0.5mM).
On to UniProt Q3YEC7 and related entries, for which the NP40-soluble protein abundance (concentration: 0.1mM) is 0.998 ± 0.032 and the NP40-soluble protein abundance (concentration: 0.5mM) amounted to 0.985 ± 0.038.
In the same order, the values of CCDC6 (UniProt Q16204) are 0.966 ± 0.037 and 0.944 ± 0.038.
In the same order, the values of “Q15392 and related entries (UniProt Q3LIE7+Q15392)” are 1.01 ± 0.03 and 0.97 ± 0.011.
Turning to TRADD (UniProt Q15628), the NP40-soluble protein abundance was 0.99 ± 0.041 (concentration: 0.1mM) and 0.9433 ± 0.0029 (concentration: 0.5mM).
Take HSDL1 (UniProt Q3SXM5): the NP40-soluble protein abundance amounted to 1.06 ± 0.11 (concentration: 0.1mM) and 1.02 ± 0.081 (concentration: 0.5mM).
Consider PMVK (UniProt Q15126), for which the NP40-soluble protein abundance is 0.961 ± 0.021 (concentration: 0.1mM) and 0.942 ± 0.049 (concentration: 0.5mM).
With UniProt Q14558-2|Q14558, the NP40-soluble protein abundance (concentration: 0.1mM) worked out at 0.979 ± 0.063 and the NP40-soluble protein abundance (concentration: 0.5mM) worked out at 1.07 ± 0.055.
On to BRD3 (UniProt Q15059), for which the NP40-soluble protein abundance reads like this: (concentration: 0.1mM) 0.978 ± 0.036; (concentration: 0.5mM) 1.04 ± 0.029.
As for TAF7 (UniProt Q15545), the NP40-soluble protein abundance by setting is: (concentration: 0.1mM) 0.985 ± 0.049; (concentration: 0.5mM) 0.956 ± 0.018.
In the same order, the values of UniProt Q14CX7 are 1.06 ± 0.05 and 1.06 ± 0.047.
In the same order, the values of SLMAP (UniProt Q14BN4) are 1.01 ± 0.011 and 0.985 ± 0.047.
Turning to UniProt Q16643 and related entries, the NP40-soluble protein abundance by setting is: (concentration: 0.1mM) 0.666 ± 0.028; (concentration: 0.5mM) 0.612 ± 0.0096.
For the target UniProt Q3T8J9-3, the NP40-soluble protein abundance (concentration: 0.1mM) amounted to 1.09 ± 0.056 and the NP40-soluble protein abundance (concentration: 0.5mM) was determined as 0.979 ± 0.052.
In the same order, the values of DYNC1H1 (UniProt Q14204) are 1.06 ± 0.067 and 1.04 ± 0.036.
Turning to UniProt Q15633 and related entries, the NP40-soluble protein abundance (concentration: 0.1mM) came to 0.959 ± 0.053 and the NP40-soluble protein abundance (concentration: 0.5mM) is 0.946 ± 0.033.
In the case of TFDP1 (UniProt Q14186), the NP40-soluble protein abundance came to 1.01 ± 0.056 (concentration: 0.1mM) and 1.06 ± 0.04 (concentration: 0.5mM).
As to AP5B1 (UniProt Q2VPB7), the NP40-soluble protein abundance reads like this: (concentration: 0.1mM) 0.903 ± 0.025; (concentration: 0.5mM) 0.904 ± 0.072.
The matching figures for SLC1A5 (UniProt Q15758): 0.955 ± 0.033 and 0.889 ± 0.015.
As for CBX2 (UniProt Q14781), the NP40-soluble protein abundance (concentration: 0.1mM) came out at 1 ± 0.091 and the NP40-soluble protein abundance (concentration: 0.5mM) came out at 1.07 ± 0.1.
Consider CEBPE (UniProt Q15744), for which the NP40-soluble protein abundance reads like this: (concentration: 0.1mM) 0.93 ± 0.097; (concentration: 0.5mM) 0.871 ± 0.098.
In the same order, the values of UniProt Q14696 are 0.955 ± 0.042 and 1 ± 0.065.
Regarding CLPP (UniProt Q16740), the NP40-soluble protein abundance came to 0.983 ± 0.026 (concentration: 0.1mM) and 0.9671 ± 0.0077 (concentration: 0.5mM).
For the target EIF3A (UniProt Q14152), the NP40-soluble protein abundance runs as follows: (concentration: 0.1mM) 0.966 ± 0.075; (concentration: 0.5mM) 0.959 ± 0.087.
With UniProt Q15019 and related entries, the NP40-soluble protein abundance was found to be 1.02 ± 0.072 (concentration: 0.1mM) and 1.03 ± 0.054 (concentration: 0.5mM).
As for UniProt Q15018, the NP40-soluble protein abundance (concentration: 0.1mM) is 1 ± 0.04 and the NP40-soluble protein abundance (concentration: 0.5mM) came to 0.992 ± 0.051.
In the case of UniProt Q15811 and related entries, the NP40-soluble protein abundance reads like this: (concentration: 0.1mM) 0.999 ± 0.029; (concentration: 0.5mM) 0.983 ± 0.049.
On to C2orf76 (UniProt Q3KRA6), for which the NP40-soluble protein abundance is, setting by setting: (concentration: 0.1mM) 0.92 ± 0.11; (concentration: 0.5mM) 0.977 ± 0.069.
As for MVP (UniProt Q14764), the NP40-soluble protein abundance turned out to be 0.99 ± 0.091 (concentration: 0.1mM) and 1.04 ± 0.082 (concentration: 0.5mM).
In the same order, the values of PDS5A (UniProt Q29RF7) are 0.978 ± 0.043 and 0.988 ± 0.033.
Take NCAPD2 (UniProt Q15021): the NP40-soluble protein abundance (concentration: 0.1mM) worked out at 1.02 ± 0.019 and the NP40-soluble protein abundance (concentration: 0.5mM) is 1 ± 0.041.
UniProt Q15020 and related entries: the NP40-soluble protein abundance is, setting by setting: (concentration: 0.1mM) 1.01 ± 0.033; (concentration: 0.5mM) 1.04 ± 0.072.
With UniProt Q2PPJ7 and related entries, the NP40-soluble protein abundance reads like this: (concentration: 0.1mM) 1.04 ± 0.052; (concentration: 0.5mM) 0.967 ± 0.047.
In the same order, the values of UniProt Q2TAY7 are 1.1 ± 0.1 and 1.05 ± 0.042.
As for C2orf68 (UniProt Q2NKX9), the NP40-soluble protein abundance (concentration: 0.1mM) turned out to be 0.945 ± 0.022 and the NP40-soluble protein abundance (concentration: 0.5mM) is 0.9027 ± 0.0057.
In the case of UniProt Q16514-2, the NP40-soluble protein abundance worked out at 0.953 ± 0.12 (concentration: 0.1mM) and 0.994 ± 0.11 (concentration: 0.5mM).
Turning to UniProt Q4J6C6 and related entries, the NP40-soluble protein abundance is 1.06 ± 0.08 (concentration: 0.1mM) and 1.06 ± 0.04 (concentration: 0.5mM).
Turning to TTLL12 (UniProt Q14166), the NP40-soluble protein abundance turned out to be 1.1 ± 0.068 (concentration: 0.1mM) and 1.07 ± 0.088 (concentration: 0.5mM).
Regarding GAMT (UniProt Q14353), the NP40-soluble protein abundance (concentration: 0.1mM) was 1.08 ± 0.02 and the NP40-soluble protein abundance (concentration: 0.5mM) came out at 1.05 ± 0.03.
As for UniProt Q3L8U1 and related entries, the NP40-soluble protein abundance is 1 ± 0.016 (concentration: 0.1mM) and 1 ± 0.011 (concentration: 0.5mM).
On to SEC23B (UniProt Q15437), for which the NP40-soluble protein abundance reads like this: (concentration: 0.1mM) 1.07 ± 0.063; (concentration: 0.5mM) 1.03 ± 0.051.
For the target PPP2R5D (UniProt Q14738), the NP40-soluble protein abundance amounted to 0.976 ± 0.026 (concentration: 0.1mM) and 0.994 ± 0.049 (concentration: 0.5mM).
The matching figures for UniProt Q14680 and related entries: 1.02 ± 0.056 and 1.1 ± 0.042.
In the case of UniProt Q14684 and related entries, the NP40-soluble protein abundance is, setting by setting: (concentration: 0.1mM) 1 ± 0.025; (concentration: 0.5mM) 1.01 ± 0.02.
With UniProt Q147X3, the NP40-soluble protein abundance reads like this: (concentration: 0.1mM) 0.989 ± 0.037; (concentration: 0.5mM) 0.988 ± 0.032.
On to LASP1 (UniProt Q14847), for which the NP40-soluble protein abundance came out at 0.974 ± 0.045 (concentration: 0.1mM) and 1 ± 0.061 (concentration: 0.5mM).
NONO (UniProt Q15233): the NP40-soluble protein abundance amounted to 1.05 ± 0.021 (concentration: 0.1mM) and 1.07 ± 0.038 (concentration: 0.5mM).
Regarding GNPTAB (UniProt Q3T906), the NP40-soluble protein abundance (concentration: 0.1mM) turned out to be 0.938 ± 0.11 and the NP40-soluble protein abundance (concentration: 0.5mM) was found to be 0.926 ± 0.092.
The matching figures for RASA3 (UniProt Q14644): 1.02 ± 0.032 and 1.01 ± 0.07.
Take MLF2 (UniProt Q15773): the NP40-soluble protein abundance by setting is: (concentration: 0.1mM) 0.947 ± 0.058; (concentration: 0.5mM) 0.83 ± 0.042.
Take UniProt Q16718 and related entries: the NP40-soluble protein abundance is, setting by setting: (concentration: 0.1mM) 0.889 ± 0.16; (concentration: 0.5mM) 0.94 ± 0.15.
With MAPRE1 (UniProt Q15691), the NP40-soluble protein abundance by setting is: (concentration: 0.1mM) 0.908 ± 0.045; (concentration: 0.5mM) 0.926 ± 0.047.

The values are drawn from the supplement of paper PMC6411743.
